Assay results reported in patent US20220152100A1, “METHODS FOR CONTROLLED ACTIVATION OR ELIMINATION OF THERAPEUTIC CELLS” (Bellicum Pharmaceuticals, Inc., priority 2014, published 2022).
For some assays here: The name of at least one read-out is uncertain. For some assays here: At least one compound was matched to its structure with a doubt left.

Assays:
Type in all cases: cell-based, human
Jurkat = test: CID-induced apoptosis (annexin V) in transduced Jurkat cells; conditions: iCasp9M-transduced Jurkat, 10 nM, 8 hours
[1] = test system: gene-modified allodepleted cells (SFG.iCasp9.2A.CD19); test: AP20187-induced apoptosis of gene-modified allodepleted T cells (annexin V/7-AAD); conditions: reactivated, CD25 positive cells
Description: Suicide gene functionality was assessed by adding a small molecule synthetic homodimerizer, AP20187 (Ariad Pharmaceuticals; Cambridge, Mass.), at 10 nM final concentration the day following CD19 immunomagnetic selection. Cells were stained with annexin V and 7-amino-actinomycin (7-AAD)(BD Pharmingen) at 24 hours and analyzed by flow cytometry. Cells negative for both annexin V and 7-AAD were considered viable, cells that were annexin V positive were apoptotic, and cells that were both annexin V and 7-AAD positive were necrotic. […]
Cells were maintained in T cell medium containing 50 U/ml IL-2 until 22 days after transduction. […] CD19 expression and suicide gene function in both reactivated and non-reactivated cells were measured on day 24 or 25 post transduction. […]
To assess the stability of transgene expression and function, cells were maintained in T cell culture medium and low dose IL-2 (50 U/ml) until 24 days after transduction. […] CD19 expression was analyzed by flow cytometry 48 to 72 hours later, and suicide gene function was assessed by treatment with 10 nM AP20187. […] By day 24, surface CD19 expression fell from about 98%±1% to about 88%±4% (p<0.05) with a parallel decrease in mean fluorescence intensity (MFI) from 793±128 to 478±107 (p<0.05) (see FIG. 13B). […]

HEK293T/16 cells = test: SEAP-based surrogate killing assay of iCasp9 mutants; conditions: in words, versus wild type
Description: Early passage HEK293T/16 cells (ATCC, Manassas, Va.) were maintained in IMDM, GlutaMAX™ (Life Technologies, Carlsbad, Calif.) supplemented with 10% FBS, 100 U/mL penicillin, and 100 […] until transfection in a humidified, 37° C., 5% CO2/95% air atmosphere. Cells in logarithmic-phase growth were transiently transfected with 800 ng to 2 μg of expression plasmid encoding iCasp9 mutants and 500 ng of an expression plasmid encoding SRα promoter driven SEAP per million cells in 15-mL conical tubes. […] GeneJammer® Transfection Reagent at a ratio of 3 μl per ug of plasmid DNA was used to transiently transfect HEK293T/16 cells in the absence of antibiotics. 100 μl or 2 mL of the transfection mixture was added to each well in 96-well or 6-well plate, respectively.
Briefly, after 65° C. heat denaturation for 45 minutes to reduce background caused by endogenous (and serum-derived) alkaline phosphatases that are sensitive to heat, 5 μl of supernatants was added to 95 μl of PBS and added to 100 μl of substrate buffer, containing 1 μl of 100 mM 4-methylumbelliferyl phosphate (4-MUP; Sigma, St. Louis, Mo.) re-suspended in 2 M diethanolamine. Hydrolysis of 4-MUP by SEAP produces a fluorescent […] with excitation/emission (355/460 nm), which can be easily measured. Assays were performed in black opaque 96-well plates to minimize fluorescence leakage between wells. […] of the mixture was seeded onto each well of a 96-well plate. […] For the assay, 4-methylumbelliferyl phosphate substrate was hydrolyzed by SEAP to 4-methylumbelliferon, a metabolite that can be excited with 364 nm and detected with an emission filter of 448 nm. Since SEAP is used as a marker for cell viability, reduced SEAP reading corresponds with increased iCaspase-9 activities.

Row | Molecule | apoptotic cells (annexin-V) (Jurkat) | killing efficiency [1] | effect on IC50 / sensitivity to AP1903 (HEK293T/16 cells)
1 | CC[C@H](C(=O)N1CCCC[C@H]1C(=O)O[C@H](CCc1ccc(OC)c(OC)c1)c1cccc(OCC(=O)NCC(CNC(=O)COc2cccc([C@@H](CCc3ccc(OC)c(OC)c3)OC(=O)[C@@H]3CCCCN3C(=O)[C@@H](CC)c3cc(OC)c(OC)c(OC)c3)c2)CN(C)C)c1)c1cc(OC)c(OC)c(OC)c1 [AP20187] | 57.2%+1-18.9 | about 93%.2±1.2 | 
2 | S195A: chimeric modified Caspase-9 polypeptide (protein, UniProt P55211 1-416, looked up, variant S195A, chimeric, fused to dimerization domain, chimeric modified Caspase-9 polypeptide) MDEADRRLLRRCRLRLVEELQVDQLWDALLSRELFRPHMIEDIQRAGSGSRRDQARQLIIDLETRGSQALPLFISCLEDTGQDMLASFLRTNRQAAKLSKPTLENLTPVVLRPEIRKPEVLRPETPRPVDIGSGGFGDVGALESLRGNADLAYILSMEPCGHCLIINNVNFCRESGLRTRTGSNIDCEKLRRRFASLHFMVEVKGDLTAKKMVLALLELAQQDHGALDCCVVVILSHGCQASHLQFPGAVYGTDGCPVSVEKIVNIFNGTSCPSLGGKPKLFFIQACGGEQKDHGFEVASTSPEDESPGSNPEPDATPFQEGLRTFDQLDAISSLPTPSDIFVSYSTFPGFVSWRDPKSGSWYVETLDDIFEQWAHSEDLQSLLLRVANAVSVKGIYKQMPGCFNFLRKKLFFKTS |  |  | increased the IC50 mildly
3 | Y153A: chimeric modified Caspase-9 polypeptide (protein, UniProt P55211 1-416, looked up, variant Y153A, chimeric, fused to dimerization domain, chimeric modified Caspase-9 polypeptide) MDEADRRLLRRCRLRLVEELQVDQLWDALLSRELFRPHMIEDIQRAGSGSRRDQARQLIIDLETRGSQALPLFISCLEDTGQDMLASFLRTNRQAAKLSKPTLENLTPVVLRPEIRKPEVLRPETPRPVDIGSGGFGDVGALESLRGNADLAAILSMEPCGHCLIINNVNFCRESGLRTRTGSNIDCEKLRRRFSSLHFMVEVKGDLTAKKMVLALLELAQQDHGALDCCVVVILSHGCQASHLQFPGAVYGTDGCPVSVEKIVNIFNGTSCPSLGGKPKLFFIQACGGEQKDHGFEVASTSPEDESPGSNPEPDATPFQEGLRTFDQLDAISSLPTPSDIFVSYSTFPGFVSWRDPKSGSWYVETLDDIFEQWAHSEDLQSLLLRVANAVSVKGIYKQMPGCFNFLRKKLFFKTS |  |  | big deleterious effect on IC50
4 | S307A: chimeric modified Caspase-9 polypeptide (protein, UniProt P55211 1-416, looked up, variant S307A, chimeric, fused to dimerization domain, chimeric modified Caspase-9 polypeptide) MDEADRRLLRRCRLRLVEELQVDQLWDALLSRELFRPHMIEDIQRAGSGSRRDQARQLIIDLETRGSQALPLFISCLEDTGQDMLASFLRTNRQAAKLSKPTLENLTPVVLRPEIRKPEVLRPETPRPVDIGSGGFGDVGALESLRGNADLAYILSMEPCGHCLIINNVNFCRESGLRTRTGSNIDCEKLRRRFSSLHFMVEVKGDLTAKKMVLALLELAQQDHGALDCCVVVILSHGCQASHLQFPGAVYGTDGCPVSVEKIVNIFNGTSCPSLGGKPKLFFIQACGGEQKDHGFEVASTSPEDEAPGSNPEPDATPFQEGLRTFDQLDAISSLPTPSDIFVSYSTFPGFVSWRDPKSGSWYVETLDDIFEQWAHSEDLQSLLLRVANAVSVKGIYKQMPGCFNFLRKKLFFKTS |  |  | big deleterious effect on IC50
